Measurements from article PMC6040738.
These are yes or no findings as the source states them, for the method shown. Binding can be weak; no strength is given. Tags and fused reporters may be left off the sequences shown.

Molecular target: recombinant Glutathion-S-Transferase (GST)-tagged HIV-1 integrase (GST-IN) (HIV-1)
Test: AlphaScreen or HTRF; GST-IN constant at 80 nM, His-YB-1 or His-TRN titrated in a 1:3 dilution series; glutathione donor and Ni-chelate acceptor beads; 25 mM Tris/HCl pH 7.5, 150 mM NaCl, 1 mM DTT, 1 mM MgCl2, 0.1% BSA, 0.1% Tween 20; 1 h at 4°C, then 1 h at 30°C with beads; both purified

B1: 6xHistidine-tagged Transportin-SR2 (His-TRN) (protein, UniProt Q9Y5L0-2 1-923)
chain: MEGAKPTLQLVYQAVQALYHDPDPSGKERASFWLGELQRSVHAWEISDQLLQIRQDVESCYFAAQTMKMKIQTSFYELPTDSHASLRDSLLTHIQNLKDLSPVIVTQLALAIADLALQMPSWKGCVQTLVEKYSNDVTSLPFLLEILTVLPEEVHSRSLRIGANRRTEIIEDLAFYSSTVVSLLMTCVEKAGTDEKMLMKVFRCLGSWFNLGVLDSNFMANNKLLALLFEVLQQDKTSSNLHEAASDCVCSALYAIENVETNLPLAMQLFQGVLTLETAYHMAVAREDLDKVLNYCRIFTELCETFLEKIVCTPGQGLGDLRTLELLLICAGHPQYEVVEISFNFWYRLGEHLYKTNDEVIHGIFKAYIQRLLHALARHCQLEPDHEGVPEETDDFGEFRMRVSDLVKDLIFLIGSMECFAQLYSTLKEGNPPWEVTEAVLFIMAAIAKSVDPENNPTLVEVLEGVVRLPETVHTAVRYTSIELVGEMSEVVDRNPQFLDPVLGYLMKGLCEKPLASAAAKAIHNICSVCRDHMAQHFNGLLEIARSLDSFLLSPEAAVGLLKGTALVLARLPLDKITECLSELCSVQVMALKKLLSQEPSNGISSDPTVFLDRLAVIFRHTNPIVENGQTHPCQKVIQEIWPVLSETLNKHRADNRIVERCCRCLRFAVRCVGKGSAALLQPLVTQMVNVYHVHQHSCFLYLGSILVDEYGMEEGCRQGLLDMLQALCIPTFQLLEQQNGLQNHPDTVDDLFRLATRFIQRSPVTLLRSQVVIPILQWAIASTTLDHRDANCSVMRFLRDLIHTGVANDHEEDFELRKELIGQVMNQLGQQLVSQLLHTCCFCLPPYTLPDVAEVLWEIMQVDRPTFCRWLENSLKGLPKETTVGAVTVTHKQLTDFHKQVTSAEECKQVCWALRDFTRLFR
binding: binds
